This passage reports binding results from paper doi:10.1101/2025.10.10.681713.

Amino acid sequences for entries named in this document (tags omitted).
UniProt Q6MZP7: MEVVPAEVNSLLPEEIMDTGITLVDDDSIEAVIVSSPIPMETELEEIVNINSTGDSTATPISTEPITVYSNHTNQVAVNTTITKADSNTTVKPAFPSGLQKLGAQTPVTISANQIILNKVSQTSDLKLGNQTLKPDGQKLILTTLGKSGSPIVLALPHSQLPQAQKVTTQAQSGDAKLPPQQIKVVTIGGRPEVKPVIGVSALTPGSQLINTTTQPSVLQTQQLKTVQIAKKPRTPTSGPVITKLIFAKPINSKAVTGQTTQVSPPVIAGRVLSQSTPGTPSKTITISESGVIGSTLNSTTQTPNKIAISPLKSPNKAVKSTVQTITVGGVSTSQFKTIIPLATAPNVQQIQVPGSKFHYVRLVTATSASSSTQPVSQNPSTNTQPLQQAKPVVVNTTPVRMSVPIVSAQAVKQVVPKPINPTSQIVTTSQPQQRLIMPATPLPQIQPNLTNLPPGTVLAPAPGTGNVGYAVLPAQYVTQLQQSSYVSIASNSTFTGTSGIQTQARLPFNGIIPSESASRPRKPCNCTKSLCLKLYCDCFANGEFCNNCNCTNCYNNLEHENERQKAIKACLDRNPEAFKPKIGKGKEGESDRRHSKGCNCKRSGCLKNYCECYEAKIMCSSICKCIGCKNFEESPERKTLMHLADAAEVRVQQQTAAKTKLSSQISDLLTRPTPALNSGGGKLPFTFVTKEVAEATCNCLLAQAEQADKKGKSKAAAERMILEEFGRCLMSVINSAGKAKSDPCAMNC

These are yes or no findings as the source states them, for the method shown. In cells and extracts the contact can be indirect. Sequences can lack the tags named with a protein.

In this experiment the target is LIN54 (human) (human (endogenous in RT112)) (UniProt Q6MZP7). Briefly: co-IP.

B1: STAG2 (human) (protein, UniProt Q8N3U4 1-1231)
chain: MIAAPEIPTDFNLLQESETHFSSDTDFEDIEGKNQKQGKGKTCKKGKKGPAEKGKGGNGGGKPPSGPNRMNGHHQQNGVENMMLFEVVKMGKSAMQSVVDDWIESYKHDRDIALLDLINFFIQCSGCKGVVTAEMFRHMQNSEIIRKMTEEFDEDSGDYPLTMAGPQWKKFKSSFCEFIGVLVRQCQYSIIYDEYMMDTVISLLTGLSDSQVRAFRHTSTLAAMKLMTALVNVALNLSINMDNTQRQYEAERNKMIGKRANERLELLLQKRKELQENQDEIENMMNAIFKGVFVHRYRDAIAEIRAICIEEIGIWMKMYSDAFLNDSYLKYVGWTMHDKQGEVRLKCLTALQGLYYNKELNSKLELFTSRFKDRIVSMTLDKEYDVAVQAIKLLTLVLQSSEEVLTAEDCENVYHLVYSAHRPVAVAAGEFLYKKLFSRRDPEEDGMMKRRGRQGPNANLVKTLVFFFLESELHEHAAYLVDSMWDCATELLKDWECMNSLLLEEPLSGEEALTDRQESALIEIMLCTIRQAAECHPPVGRGTGKRVLTAKEKKTQLDDRTKITELFAVALPQLLAKYSVDAEKVTNLLQLPQYFDLEIYTTGRLEKHLDALLRQIRNIVEKHTDTDVLEACSKTYHALCNEEFTIFNRVDISRSQLIDELADKFNRLLEDFLQEGEEPDEDDAYQVLSTLKRITAFHNAHDLSKWDLFACNYKLLKTGIENGDMPEQIVIHALQCTHYVILWQLAKITESSSTKEDLLRLKKQMRVFCQICQHYLTNVNTTVKEQAFTILCDILMIFSHQIMSGGRDMLEPLVYTPDSSLQSELLSFILDHVFIEQDDDNNSADGQQEDEASKIEALHKRRNLLAAFCKLIVYTVVEMNTAADIFKQYMKYYNDYGDIIKETMSKTRQIDKIQCAKTLILSLQQLFNEMIQENGYNFDRSSSTFSGIKELARRFALTFGLDQLKTREAIAMLHKDGIEFAFKEPNPQGESHPPLNLAFLDILSEFSSKLLRQDKRTVYVYLEKFMTFQMSLRREDVWLPLMSYRNSLLAGGDDDTMSVISGISSRGSTVRSKKSKPSTGKRKVVEGMQLSLTEESSSSDSMWLSREQTLHTPVMMQTPQLTSTIMREPKRLRPEDSFMSVYPMQTEHHQTPLDYNRRGTSLMEDDEEPIVEDVMMSSEGRIEDLNEGMDFDTMDIDLPPSKNRRERTELKPDFFDPASIMDESVLGVSMF
On to B1, for which the binding result is “no binding”.
